Measured values taken from article PMC11338077.
Results are given in words; binding and its absence hold for the method and conditions named. In cells and extracts the contact can be indirect. Some binding calls cover weakened binding; strength is not graded here.

Protein sequences, listed by entry. Tags and fused reporters are not part of them.
UniProt P08047: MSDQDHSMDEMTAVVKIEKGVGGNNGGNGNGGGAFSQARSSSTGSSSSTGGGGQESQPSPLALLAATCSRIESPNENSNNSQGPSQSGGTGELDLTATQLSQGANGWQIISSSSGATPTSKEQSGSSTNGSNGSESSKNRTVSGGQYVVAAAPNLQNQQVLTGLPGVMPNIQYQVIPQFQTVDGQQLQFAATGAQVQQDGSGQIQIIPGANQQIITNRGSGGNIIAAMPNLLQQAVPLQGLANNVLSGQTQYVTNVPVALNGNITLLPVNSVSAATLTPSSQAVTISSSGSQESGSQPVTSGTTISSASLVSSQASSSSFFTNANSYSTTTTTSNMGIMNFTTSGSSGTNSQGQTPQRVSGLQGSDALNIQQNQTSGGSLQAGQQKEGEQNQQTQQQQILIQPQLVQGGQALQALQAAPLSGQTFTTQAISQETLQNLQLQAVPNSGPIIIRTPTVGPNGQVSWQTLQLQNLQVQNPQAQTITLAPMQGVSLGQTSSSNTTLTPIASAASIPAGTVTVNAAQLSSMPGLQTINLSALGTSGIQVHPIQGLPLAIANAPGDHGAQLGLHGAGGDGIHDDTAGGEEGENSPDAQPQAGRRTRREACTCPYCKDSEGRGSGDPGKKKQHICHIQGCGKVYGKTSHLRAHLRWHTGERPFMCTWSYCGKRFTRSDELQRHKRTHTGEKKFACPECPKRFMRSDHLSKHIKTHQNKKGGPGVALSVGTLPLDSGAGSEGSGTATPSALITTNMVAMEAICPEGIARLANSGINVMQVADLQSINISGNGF
UniProt Q16666: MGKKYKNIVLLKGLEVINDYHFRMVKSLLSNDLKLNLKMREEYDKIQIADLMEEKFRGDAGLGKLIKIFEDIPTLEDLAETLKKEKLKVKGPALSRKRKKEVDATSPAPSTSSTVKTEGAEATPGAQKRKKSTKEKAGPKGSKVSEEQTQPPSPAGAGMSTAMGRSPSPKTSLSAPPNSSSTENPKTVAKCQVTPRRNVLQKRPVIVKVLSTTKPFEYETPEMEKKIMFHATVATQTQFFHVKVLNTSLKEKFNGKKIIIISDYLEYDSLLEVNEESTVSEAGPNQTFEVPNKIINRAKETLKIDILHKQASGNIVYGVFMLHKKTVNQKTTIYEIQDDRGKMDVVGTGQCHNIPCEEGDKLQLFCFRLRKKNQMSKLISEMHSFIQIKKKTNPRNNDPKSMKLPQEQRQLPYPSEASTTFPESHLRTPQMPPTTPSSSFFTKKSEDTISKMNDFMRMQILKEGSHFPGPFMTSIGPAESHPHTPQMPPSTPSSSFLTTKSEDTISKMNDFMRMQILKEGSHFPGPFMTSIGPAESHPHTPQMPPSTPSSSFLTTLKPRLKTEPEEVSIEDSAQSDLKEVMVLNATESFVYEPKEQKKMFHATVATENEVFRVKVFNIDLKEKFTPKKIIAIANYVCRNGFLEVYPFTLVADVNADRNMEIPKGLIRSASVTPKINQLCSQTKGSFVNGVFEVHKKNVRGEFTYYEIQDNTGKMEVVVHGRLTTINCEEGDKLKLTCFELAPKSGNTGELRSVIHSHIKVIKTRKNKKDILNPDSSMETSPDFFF

Molecular target: transcription factor Sp1 (human (endogenous in U2OS)) (UniProt P08047)
Test: co-IP; U2OS wt and U2OS IFI16-/- cell lysates (SDS lysis buffer, diluted 1:10 in dilution buffer); precipitation with 1.5 µg anti-Sp1 antibody or rabbit IgG1 control overnight at 4°C, protein G agarose with salmon sperm DNA; washes with low salt, high salt (500 mM NaCl), LiCl buffers and TE; Western blot

binding: binds
Substance: interferon-γ inducible factor 16 (IFI16) (from UniProt Q16666 1-785)
